Assay results: patent publication US8440698B2, “3-(4-((1H-imidazol-1-yl)methyl)phenyl)-5-aryl-1,2,4-oxadiazole derivatives as sphingosine-1 phosphate receptors modulators” (Allergan, Inc., priority 2010, dated 2013)
Some entries share one result that the patent states for a list of compounds.

System: blood lymphocytes
Assay: Lymphopenia assay in mice (in vivo blood lymphocyte depletion)
Settings: female C57BL6 mice, 10 mg/Kg subcutaneous, 5 hrs post drug application

Structure (SMILES) | lymphocyte count in blood after 5 hours
CC(C)Oc1ccc(-c2nc(-c3ccc(Cn4ccnc4)cc3)no2)cc1Cl [Compound 16, 5-(3-Chloro-4-isopropoxy-phenyl)-3-(4-imidazol-1-ylmethyl-phenyl)-[1,2,4]oxadiazole] | < 1 10^3/μL blood
CC(C)Oc1ccc(-c2nc(-c3ccc(Cn4ccnc4)cc3)no2)cc1C(F)(F)F [Compound 3, 3-(4-Imidazol-1-ylmethyl-phenyl)-5-(4-isopropoxy-3-trifluoromethyl-phenyl)-[1,2,4]oxadiazole] | < 1 10^3/μL blood
